These are yes or no findings as the source states them, for the method shown. Binding seen in cells or lysates may run through a third protein. Some results given as binding are weak or reduced against the parent protein; the word gives no strength.
Target: AKT (endogenous, in 15R-KIT T cells) (human) (UniProt P31749)
Assay: co-immunoprecipitation of endogenous proteins from 15R-KIT T cell lysates, with and without IL-15 (FIG. 5B)

The chains behind the UniProt entries cited, without tags or fusion partners. Residues count along the entry.
UniProt P31749: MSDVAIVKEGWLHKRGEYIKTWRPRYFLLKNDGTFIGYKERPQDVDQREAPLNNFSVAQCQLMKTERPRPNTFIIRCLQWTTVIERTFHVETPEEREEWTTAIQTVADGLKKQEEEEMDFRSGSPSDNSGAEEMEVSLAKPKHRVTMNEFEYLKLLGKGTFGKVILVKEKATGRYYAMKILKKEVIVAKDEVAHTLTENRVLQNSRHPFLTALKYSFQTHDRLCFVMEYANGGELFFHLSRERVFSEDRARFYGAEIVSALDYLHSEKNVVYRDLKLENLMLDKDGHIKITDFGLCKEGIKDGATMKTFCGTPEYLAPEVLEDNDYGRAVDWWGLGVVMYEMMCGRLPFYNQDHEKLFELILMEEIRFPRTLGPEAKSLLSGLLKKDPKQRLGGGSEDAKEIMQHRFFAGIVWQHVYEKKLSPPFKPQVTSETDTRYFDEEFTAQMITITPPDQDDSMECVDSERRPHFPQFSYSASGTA
UniProt Q96FW1, residues 2-271: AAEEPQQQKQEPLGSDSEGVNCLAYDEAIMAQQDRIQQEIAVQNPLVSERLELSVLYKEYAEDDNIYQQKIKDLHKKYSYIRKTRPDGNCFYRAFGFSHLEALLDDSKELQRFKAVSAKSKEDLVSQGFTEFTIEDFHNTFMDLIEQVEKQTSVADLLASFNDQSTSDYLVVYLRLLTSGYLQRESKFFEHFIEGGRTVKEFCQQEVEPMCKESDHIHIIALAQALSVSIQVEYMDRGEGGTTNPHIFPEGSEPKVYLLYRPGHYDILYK

binding: binds
Substance: Otub1 (endogenous, in 15R-KIT T cells) (from UniProt Q96FW1 2-271) (enzyme)
